Experimental data reported in article PMC11417675, “Systematic Evaluation of Tyrosine Kinase Inhibitors as OATP1B1 Substrates Using a Competitive Counterflow Screen” (Cancer Research Communications, 2024).

Tests used:
OATP1B1 [1] = target: T1, OATP1B1 (Homo sapiens, UniProt Q9Y6L6); assay: Competitive counterflow (CCF) assay, efflux of preloaded [3H]-EβG in OATP1B1-overexpressing HEK293 cells; conditions: 1, 10 and 100 μmol/L
T1 sequence (Q9Y6L6 1-691): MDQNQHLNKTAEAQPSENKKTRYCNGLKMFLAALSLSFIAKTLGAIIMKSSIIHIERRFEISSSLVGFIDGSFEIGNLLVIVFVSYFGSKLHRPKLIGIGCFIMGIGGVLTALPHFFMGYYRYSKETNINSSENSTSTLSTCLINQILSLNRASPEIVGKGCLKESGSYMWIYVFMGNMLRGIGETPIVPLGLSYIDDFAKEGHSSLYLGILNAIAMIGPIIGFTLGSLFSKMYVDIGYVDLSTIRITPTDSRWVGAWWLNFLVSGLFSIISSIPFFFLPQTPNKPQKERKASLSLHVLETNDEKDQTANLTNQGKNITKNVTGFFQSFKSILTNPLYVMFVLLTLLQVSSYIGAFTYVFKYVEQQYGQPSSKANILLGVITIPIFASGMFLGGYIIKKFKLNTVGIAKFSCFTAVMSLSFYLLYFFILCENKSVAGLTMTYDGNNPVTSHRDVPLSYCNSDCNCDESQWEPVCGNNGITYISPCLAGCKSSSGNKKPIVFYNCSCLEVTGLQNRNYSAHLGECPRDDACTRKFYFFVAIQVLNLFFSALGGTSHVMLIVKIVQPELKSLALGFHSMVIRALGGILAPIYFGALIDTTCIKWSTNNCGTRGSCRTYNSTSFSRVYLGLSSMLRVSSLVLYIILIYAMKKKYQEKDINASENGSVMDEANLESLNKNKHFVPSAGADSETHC
Method: Cellular accumulation assays were performed in human embryonic kidney cells (HEK293; RRID: CVCL_0045) that were genetically engineered to overexpress human OATP1B1 ([23]–[25]). Cell lines were authenticated by Applied Biosystems AmpFISTR Identifiler testing with PCR amplification. […] All cells were used within passage 30 and verified to be Mycoplasma-free using the MycoAlert Mycoplasma Detection Kit (Lonza). At 80% to 90% confluency, cells were seeded on poly-D-lysine–coated 96-well plates 24 hours prior to the assay (2,500 cells/well), and expression of OATP1B1 was induced with 1 μg/mL doxycycline in phenol red–free DMEM.
The CCF assay uses OATP1B1-overexpressing HEK293 cells seeded and cultured as described above. During the study, cells were preincubated at room temperature (∼ 20°C) with 0.01 μmol/L EβG in prewarmed serum-free and phenol red–free DMEM for 1 hour. Following preincubation, each well was spiked with 1 μL of a stock solution containing 0.1, 1, or 10 mmol/L of positive control (EβG), negative control (glucose), test compound dissolved in Dimethylsulfoxide (DMSO), or DMSO only as a vehicle control. […] Total radioactivity was determined on a MicroBeta microplate scintillation counter (PerkinElmer), and the resulting counts were then normalized to total protein as determined using a Pierce protein assay (Thermo Fisher Scientific).

OATP1B1 [2] = conditions: cited from earlier work

| SMILES | pattern of efflux vs concentration in CCF assay (OATP1B1 [1]) | IC50 (OATP1B1 [2]) [µM] |
| --- | --- | --- |
| COc1cc(OC)cc(N(CCNC(C)C)c2ccc3ncc(-c4cnn(C)c4)nc3c2)c1 [Erdafitinib] | clearly dependent on concentration | – |
| C=CC(=O)N1CC[C@H](n2nc(C#Cc3cc(OC)cc(OC)c3)c3c(N)ncnc32)C1 [Futibatinib] | solely at lower concentrations | 2.85 |
